Experimental data from the supplement of paper PMC11348887.
Counter-ions that a name gives are not always drawn. Some of the results follow. Most entries show no effect beyond the scatter of the controls. Where a SMILES comes first, the peptide text is derived from it. The star is where a group is joined. Cbz = O=C(OCc1ccccc1)*; CH2F = FC*

Experiments:
Details in all cases: 5 µM; treatment: days 7-14 after plating, readout day 21
[1] = tested on: hPSC-derived cortical neurons (WA09); assay: nucleus area z-score vs screen plate; higher = larger nuclei (more mature)
[2] = tested on: hPSC-derived cortical neurons (WA09); assay: total neurite length per nucleus (MAP2) z-score; higher = more neurite growth
[3] = tested on: hPSC-derived cortical neurons (WA09); assay: nucleus roundness z-score vs screen plate; higher = rounder nuclei (more mature)
[4] = tested on: hPSC-derived cortical neurons (WA09); assay: KCl-induced FOS+/EGR-1+ double-positive nuclei fraction z-score (KCl minus unstimulated); higher = stronger activity-induced IEG response

| SMILES | nucleus area z-score [1] | total neurite length per nucleus (z-score) [2] | nucleus roundness z-score [3] | KCl-induced FOS+/EGR-1+ double-positive nuclei fraction z-score [4] |
| --- | --- | --- | --- | --- |
| COC(=O)C[C@H](NC(=O)[C@H](C)NC(=O)[C@@H](NC(=O)OCc1ccccc1)C(C)C)C(=O)CF (Cbz-Val-Ala-Asp(OMe)-CH2F) | -0.248 | 0.043 | 0.702 | -0.275 |
| O=C(Nc1ncc(SCCN2CCCC2)s1)[C@]1(c2ccc(S(=O)(=O)C3CC3)cc2)C[C@H]1C1CCCCC1 | -15.5 | -5.44 | 0.796 | -1.03 |
| CC1(C)C=C(CN2C/C(=C\c3ccc(F)cc3)C(=O)/C(=C/c3ccc(F)cc3)C2)C(C)(C)N1O | -0.0492 | -0.364 | 0.208 | -0.531 |
| CN1CCN(S(=O)(=O)c2ccc(-c3cnc(N)c(C(=O)Nc4cccnc4)n3)cc2)CC1 | -0.245 | -1.85 | -3.01 | -0.0614 |
| O=C(Nc1ccc(-c2ccnc(Nc3ccc(N4CCOCC4)cc3)n2)cc1)C1CCCN1 (stereo not drawn) | -0.122 | 0.0946 | -0.329 | -0.6 |
| CCCc1ccc(OCC(=O)N(Cc2nc(-c3cccnc3)no2)C(C)C)cc1 | 0.844 | 1.5 | 0.929 | 1.79 |
| CCOC(=O)C1=C(N)Oc2ccc(Br)cc2C1C(C#N)C(=O)OCC (stereo not drawn) | 1.09 | -0.691 | -1.34 | -0.925 |
| O=c1[nH]c(=O)n([C@H]2C[C@H](O)[C@@H](CO)O2)cc1F [Floxuridine] | -1.69 | -1.06 | -0.219 | -1.37 |
| COc1cc2c(cc1OC)C(=O)C(CC1CCN(Cc3ccccc3)CC1)C2 (stereo not drawn) [Donepezil HCl] | -1.46 | -0.143 | -0.0629 | -0.733 |
| O=C(O)c1ccc(-c2c[nH]c3ncc(-c4ccccc4)cc23)cc1C1CCCC1 | 0.433 | 0.943 | 0.0495 | 1.81 |
| Cc1ccc(C(=O)c2cc(O)c(O)c([N+](=O)[O-])c2)cc1 [Tolcapone] | 1.41 | 0.113 | 0.183 | 0.919 |
| C=CC(C)(C)c1cc(/C=C/C(=O)c2ccc(O)cc2)c(OC)cc1O [Licochalcone A] | 0.0563 | 1.5 | 0.702 | 0.163 |
| N#Cc1cc(CN2CCC(Nc3ncnc4sc(Cl)cc34)CC2)ccc1F | -0.533 | 0.799 | 0.608 | 0.261 |
| OCCOCCN1CCN(C2=Nc3ccccc3Sc3ccccc32)CC1 [Quetiapine Fumarate] | -1.07 | -0.654 | 0.833 | 1.59 |
| C#C[C@]1(OC(C)=O)CC[C@H]2[C@@H]3CCC4=C[C@@H](OC(C)=O)CC[C@@H]4[C@H]3CC[C@@]21C [Ethynodiol diacetate] | -0.241 | 0.426 | 0.723 | 0.167 |
| C[C@H](NC(=O)Cc1cc(F)cc(F)c1)C(=O)N[C@H](C(=O)OC(C)(C)C)c1ccccc1 | 0.00954 | -0.0175 | 0.502 | 0.197 |
| CCNC1(C(N)=O)CCN(c2ncnc3c2nc(-c2ccccc2Cl)n3-c2ccc(Cl)cc2)CC1 | -0.389 | 0.0146 | -0.0882 | 0.0724 |
| CC(C)NC(=O)COc1cccc(-c2nc(Nc3ccc4[nH]ncc4c3)c3ccccc3n2)c1 | -1.49 | -2.19 | -2.3 | -0.393 |
| CC(/C=C1\SC(=S)N(CC(=O)O)C1=O)=C\c1ccccc1 [Epalrestat] | -0.121 | -0.924 | -0.907 | -0.396 |
| Clc1cccc(CN=C2Nc3ccccc3NC23CCNCC3)c1 [Liproxstatin-1] | 0.0877 | 0.00609 | 0.507 | 0.106 |
| Nc1ncc(-c2ccnc(Nc3ccncc3)n2)c(CC2CC2)n1 | -5.92 | -1.51 | -2.58 | 0.748 |
| CCN(c1cc(-c2ccc(CN3CCOCC3)cc2)cc(C(=O)NCc2c(C)cc(C)[nH]c2=O)c1C)C1CCOCC1 | 0.649 | -0.209 | 0.206 | 0.873 |
| COC(=O)c1ccc2c(c1)NC(=O)/C2=C(\Nc1ccc(N(C)C(=O)CN2CCN(C)CC2)cc1)c1ccccc1 [Nintedanib (BIBF 1120)] | -3.72 | -1.6 | 0.677 | 0.00106 |
| COC(=O)[C@@H]1[C@H]2C[C@H]3c4[nH]c5ccccc5c4CCN3C[C@@H]2CC[C@@H]1O [Yohimbine HCl] | -0.49 | 0.4 | 0.338 | 0.0936 |
| O=C(O)c1cc(=O)c2ccccc2o1 [Chromocarb] | 0.035 | -0.3 | -1.32 | -0.075 |
| Nc1c(CC(=O)O)cccc1C(=O)c1ccc(Br)cc1 [Bromfenac Sodium] | 0.144 | 1.07 | 0.624 | -0.18 |
| CO[C@H]1O[C@@H]2O[C@@]3(C)CC[C@H]4[C@H](C)CC[C@@H]([C@H]1C)[C@@]24OO3 [Artemether] | -0.358 | 0.398 | 0.486 | -0.0912 |

Looked up above.
In nucleus roundness z-score [3], CC(/C=C1\SC(=S)N(CC(=O)O)C1=O)=C\c1ccccc1 [Epalrestat] shows -0.907
In nucleus area z-score [1], C=CC(C)(C)c1cc(/C=C/C(=O)c2ccc(O)cc2)c(OC)cc1O [Licochalcone A] shows 0.0563
